Measurements from the supplement of paper PMC10849652.
The list shows a part of the results.

Chains of the proteins cited; added tags and fusions are not shown. Lines headed by an entry give the natural chain unless they say otherwise; changes in a name come on top.
UniProt O75477: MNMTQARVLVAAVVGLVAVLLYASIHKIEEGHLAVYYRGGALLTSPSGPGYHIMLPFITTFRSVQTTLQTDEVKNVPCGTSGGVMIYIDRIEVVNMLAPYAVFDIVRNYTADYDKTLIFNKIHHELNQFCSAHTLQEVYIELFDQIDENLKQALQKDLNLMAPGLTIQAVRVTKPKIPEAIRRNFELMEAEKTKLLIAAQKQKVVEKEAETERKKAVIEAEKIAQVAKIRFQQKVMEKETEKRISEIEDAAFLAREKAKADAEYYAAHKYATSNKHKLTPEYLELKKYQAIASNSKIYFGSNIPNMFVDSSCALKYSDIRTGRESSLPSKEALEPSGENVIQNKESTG
UniProt P34913, whole entry, looked up: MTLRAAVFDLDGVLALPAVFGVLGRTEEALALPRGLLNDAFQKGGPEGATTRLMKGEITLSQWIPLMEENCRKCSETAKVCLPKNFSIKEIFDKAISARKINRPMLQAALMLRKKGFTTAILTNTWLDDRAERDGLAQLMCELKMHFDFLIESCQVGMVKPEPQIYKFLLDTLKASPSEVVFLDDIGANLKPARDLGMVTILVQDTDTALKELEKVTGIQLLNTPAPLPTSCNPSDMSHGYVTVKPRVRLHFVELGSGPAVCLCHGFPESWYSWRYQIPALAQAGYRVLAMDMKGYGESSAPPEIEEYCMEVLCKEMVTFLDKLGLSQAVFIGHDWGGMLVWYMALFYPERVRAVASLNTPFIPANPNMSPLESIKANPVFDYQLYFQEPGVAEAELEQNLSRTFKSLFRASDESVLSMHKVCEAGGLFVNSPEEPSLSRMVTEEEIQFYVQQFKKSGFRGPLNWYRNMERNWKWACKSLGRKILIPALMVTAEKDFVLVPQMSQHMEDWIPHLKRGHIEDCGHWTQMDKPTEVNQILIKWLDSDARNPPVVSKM
UniProt Q9NVH0: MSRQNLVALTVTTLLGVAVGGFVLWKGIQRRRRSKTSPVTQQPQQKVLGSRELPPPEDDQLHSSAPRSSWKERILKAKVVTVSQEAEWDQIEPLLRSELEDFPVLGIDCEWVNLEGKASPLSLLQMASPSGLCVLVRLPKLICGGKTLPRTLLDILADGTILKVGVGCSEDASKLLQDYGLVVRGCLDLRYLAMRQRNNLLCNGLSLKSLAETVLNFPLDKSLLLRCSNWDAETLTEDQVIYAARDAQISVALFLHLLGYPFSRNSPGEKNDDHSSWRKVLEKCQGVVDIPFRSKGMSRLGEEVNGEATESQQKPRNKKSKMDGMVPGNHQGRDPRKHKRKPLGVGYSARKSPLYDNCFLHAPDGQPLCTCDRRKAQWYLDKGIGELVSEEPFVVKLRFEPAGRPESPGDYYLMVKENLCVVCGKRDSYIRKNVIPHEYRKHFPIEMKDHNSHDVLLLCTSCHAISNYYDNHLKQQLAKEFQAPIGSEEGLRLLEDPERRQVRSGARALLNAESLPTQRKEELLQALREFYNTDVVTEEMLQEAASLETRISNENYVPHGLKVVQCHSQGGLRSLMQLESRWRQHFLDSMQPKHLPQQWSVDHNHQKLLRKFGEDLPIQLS
UniProt Q8IWE2: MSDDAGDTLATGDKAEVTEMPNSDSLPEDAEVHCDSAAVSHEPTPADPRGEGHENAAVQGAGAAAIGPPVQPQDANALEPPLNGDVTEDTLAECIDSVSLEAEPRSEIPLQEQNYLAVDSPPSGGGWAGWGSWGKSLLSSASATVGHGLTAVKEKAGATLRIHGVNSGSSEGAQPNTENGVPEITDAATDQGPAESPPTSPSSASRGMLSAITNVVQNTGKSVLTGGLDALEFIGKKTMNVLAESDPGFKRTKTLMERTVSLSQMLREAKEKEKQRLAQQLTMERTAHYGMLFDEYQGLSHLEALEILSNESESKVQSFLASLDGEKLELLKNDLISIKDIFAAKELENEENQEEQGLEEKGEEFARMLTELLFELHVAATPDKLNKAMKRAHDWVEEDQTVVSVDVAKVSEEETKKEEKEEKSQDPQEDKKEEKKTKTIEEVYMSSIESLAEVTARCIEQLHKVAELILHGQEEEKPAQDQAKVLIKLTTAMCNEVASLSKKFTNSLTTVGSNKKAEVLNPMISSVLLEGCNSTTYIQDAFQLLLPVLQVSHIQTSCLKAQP
UniProt P07992: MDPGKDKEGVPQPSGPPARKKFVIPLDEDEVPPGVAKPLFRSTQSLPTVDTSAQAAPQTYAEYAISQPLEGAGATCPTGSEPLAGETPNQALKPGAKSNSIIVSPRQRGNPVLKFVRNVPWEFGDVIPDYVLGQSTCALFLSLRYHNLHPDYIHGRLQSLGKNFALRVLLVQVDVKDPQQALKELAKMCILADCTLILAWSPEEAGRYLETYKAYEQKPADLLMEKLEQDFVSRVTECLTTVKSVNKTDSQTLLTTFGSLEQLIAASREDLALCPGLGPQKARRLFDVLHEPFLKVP
UniProt Q15910, whole entry, looked up: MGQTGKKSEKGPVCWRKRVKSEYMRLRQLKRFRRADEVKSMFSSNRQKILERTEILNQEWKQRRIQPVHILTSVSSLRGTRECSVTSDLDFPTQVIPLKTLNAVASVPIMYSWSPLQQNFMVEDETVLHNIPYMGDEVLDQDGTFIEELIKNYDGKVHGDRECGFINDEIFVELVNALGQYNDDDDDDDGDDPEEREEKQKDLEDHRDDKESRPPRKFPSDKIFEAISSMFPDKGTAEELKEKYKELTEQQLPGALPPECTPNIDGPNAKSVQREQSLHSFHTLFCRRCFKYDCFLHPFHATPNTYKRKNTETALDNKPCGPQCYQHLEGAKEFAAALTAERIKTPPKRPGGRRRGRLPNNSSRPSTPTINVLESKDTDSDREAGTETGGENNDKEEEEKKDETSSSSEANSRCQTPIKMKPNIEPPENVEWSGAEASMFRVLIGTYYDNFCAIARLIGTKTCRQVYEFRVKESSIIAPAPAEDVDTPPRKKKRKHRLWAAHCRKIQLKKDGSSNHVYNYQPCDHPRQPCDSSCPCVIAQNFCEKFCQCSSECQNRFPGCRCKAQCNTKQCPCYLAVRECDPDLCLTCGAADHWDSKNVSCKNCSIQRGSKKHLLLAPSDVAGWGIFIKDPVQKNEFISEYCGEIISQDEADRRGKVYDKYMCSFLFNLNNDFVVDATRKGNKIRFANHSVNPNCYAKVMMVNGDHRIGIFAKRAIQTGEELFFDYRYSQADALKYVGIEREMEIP
UniProt P00742, whole entry, looked up: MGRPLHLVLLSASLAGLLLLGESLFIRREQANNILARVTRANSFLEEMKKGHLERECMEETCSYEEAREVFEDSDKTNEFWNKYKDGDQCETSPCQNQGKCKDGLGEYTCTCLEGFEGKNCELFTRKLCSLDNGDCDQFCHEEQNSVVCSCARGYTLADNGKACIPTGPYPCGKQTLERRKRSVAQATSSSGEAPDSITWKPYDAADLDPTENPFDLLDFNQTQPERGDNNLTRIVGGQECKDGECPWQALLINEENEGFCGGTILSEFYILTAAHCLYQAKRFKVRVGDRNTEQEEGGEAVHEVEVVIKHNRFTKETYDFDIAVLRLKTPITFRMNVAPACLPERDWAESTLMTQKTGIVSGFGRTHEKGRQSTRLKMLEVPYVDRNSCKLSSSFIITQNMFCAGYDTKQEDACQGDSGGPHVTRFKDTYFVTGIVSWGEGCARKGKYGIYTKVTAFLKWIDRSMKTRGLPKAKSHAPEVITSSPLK
UniProt Q8IV48: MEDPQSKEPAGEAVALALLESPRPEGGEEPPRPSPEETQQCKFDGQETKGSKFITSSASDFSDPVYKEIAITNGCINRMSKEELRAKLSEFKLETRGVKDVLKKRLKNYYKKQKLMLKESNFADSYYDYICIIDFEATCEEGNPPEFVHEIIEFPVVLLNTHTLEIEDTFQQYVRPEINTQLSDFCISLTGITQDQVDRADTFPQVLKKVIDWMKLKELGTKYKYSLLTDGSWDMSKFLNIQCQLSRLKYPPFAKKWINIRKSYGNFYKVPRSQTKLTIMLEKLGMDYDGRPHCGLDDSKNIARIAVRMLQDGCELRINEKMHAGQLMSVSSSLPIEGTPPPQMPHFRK
UniProt Q14674: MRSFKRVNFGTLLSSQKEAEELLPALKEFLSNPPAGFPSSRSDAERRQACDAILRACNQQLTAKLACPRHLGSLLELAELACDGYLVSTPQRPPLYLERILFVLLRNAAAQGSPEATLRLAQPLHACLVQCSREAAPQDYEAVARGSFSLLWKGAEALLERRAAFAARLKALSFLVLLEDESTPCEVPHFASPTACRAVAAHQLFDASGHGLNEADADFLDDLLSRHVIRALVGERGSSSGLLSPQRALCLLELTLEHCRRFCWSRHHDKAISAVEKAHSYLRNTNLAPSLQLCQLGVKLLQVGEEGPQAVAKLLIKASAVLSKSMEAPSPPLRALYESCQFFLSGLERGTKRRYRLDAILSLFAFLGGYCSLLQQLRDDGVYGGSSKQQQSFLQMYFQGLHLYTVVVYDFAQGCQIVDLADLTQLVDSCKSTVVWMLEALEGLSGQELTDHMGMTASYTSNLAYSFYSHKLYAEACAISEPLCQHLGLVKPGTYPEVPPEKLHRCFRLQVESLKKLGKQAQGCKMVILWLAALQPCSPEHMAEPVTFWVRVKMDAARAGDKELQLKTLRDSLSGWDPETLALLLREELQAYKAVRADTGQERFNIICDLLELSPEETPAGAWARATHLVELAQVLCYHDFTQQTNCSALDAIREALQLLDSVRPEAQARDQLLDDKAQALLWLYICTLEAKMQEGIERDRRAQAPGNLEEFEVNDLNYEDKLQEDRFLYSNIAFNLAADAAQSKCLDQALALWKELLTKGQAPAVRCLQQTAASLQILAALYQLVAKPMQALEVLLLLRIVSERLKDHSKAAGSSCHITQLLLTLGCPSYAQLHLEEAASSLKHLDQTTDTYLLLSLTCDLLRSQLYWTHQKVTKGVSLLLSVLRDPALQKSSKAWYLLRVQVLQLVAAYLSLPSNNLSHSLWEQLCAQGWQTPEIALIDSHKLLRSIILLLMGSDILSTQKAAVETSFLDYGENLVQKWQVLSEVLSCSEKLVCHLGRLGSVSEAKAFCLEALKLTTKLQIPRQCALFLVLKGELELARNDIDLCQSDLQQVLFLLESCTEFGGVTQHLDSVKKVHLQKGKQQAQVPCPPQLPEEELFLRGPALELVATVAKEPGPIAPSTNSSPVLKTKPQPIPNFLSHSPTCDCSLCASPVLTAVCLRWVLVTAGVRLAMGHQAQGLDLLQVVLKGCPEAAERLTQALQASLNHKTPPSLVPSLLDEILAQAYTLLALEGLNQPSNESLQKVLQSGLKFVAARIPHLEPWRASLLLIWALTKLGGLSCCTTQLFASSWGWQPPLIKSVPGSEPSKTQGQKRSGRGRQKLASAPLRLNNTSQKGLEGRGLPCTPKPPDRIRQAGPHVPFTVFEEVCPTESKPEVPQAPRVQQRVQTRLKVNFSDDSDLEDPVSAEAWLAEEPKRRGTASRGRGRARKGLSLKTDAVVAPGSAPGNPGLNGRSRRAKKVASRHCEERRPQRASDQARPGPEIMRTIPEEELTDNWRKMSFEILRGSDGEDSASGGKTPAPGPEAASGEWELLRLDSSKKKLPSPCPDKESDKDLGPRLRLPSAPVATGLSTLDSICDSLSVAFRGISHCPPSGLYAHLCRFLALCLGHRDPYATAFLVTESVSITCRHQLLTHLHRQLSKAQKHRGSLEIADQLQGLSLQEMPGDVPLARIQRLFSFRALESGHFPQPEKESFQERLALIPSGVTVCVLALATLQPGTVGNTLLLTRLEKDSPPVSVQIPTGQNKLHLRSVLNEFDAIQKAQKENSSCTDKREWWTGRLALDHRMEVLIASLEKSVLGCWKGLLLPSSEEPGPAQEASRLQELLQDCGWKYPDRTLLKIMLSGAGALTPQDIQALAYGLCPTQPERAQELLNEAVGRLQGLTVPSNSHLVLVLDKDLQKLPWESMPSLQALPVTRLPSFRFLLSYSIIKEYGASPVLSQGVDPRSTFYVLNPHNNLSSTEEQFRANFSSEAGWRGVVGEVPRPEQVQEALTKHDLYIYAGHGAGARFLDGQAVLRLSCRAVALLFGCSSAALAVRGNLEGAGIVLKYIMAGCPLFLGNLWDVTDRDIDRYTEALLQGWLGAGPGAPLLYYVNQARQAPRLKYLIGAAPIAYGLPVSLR
UniProt O95718: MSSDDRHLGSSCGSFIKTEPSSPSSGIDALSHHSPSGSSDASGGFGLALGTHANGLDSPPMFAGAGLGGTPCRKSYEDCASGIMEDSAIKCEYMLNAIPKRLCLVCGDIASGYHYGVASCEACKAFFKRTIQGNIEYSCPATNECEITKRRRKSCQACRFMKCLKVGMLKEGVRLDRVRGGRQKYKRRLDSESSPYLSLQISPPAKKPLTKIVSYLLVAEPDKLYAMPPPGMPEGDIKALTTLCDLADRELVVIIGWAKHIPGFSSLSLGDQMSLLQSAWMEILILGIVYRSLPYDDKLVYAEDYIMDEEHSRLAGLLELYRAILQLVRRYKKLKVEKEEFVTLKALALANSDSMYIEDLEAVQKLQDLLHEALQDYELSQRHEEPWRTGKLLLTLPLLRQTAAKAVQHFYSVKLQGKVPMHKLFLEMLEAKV

Legend:
Test in all cases: log2 fold change, soluble protein after heating vs DMSO (PISA); higher = thermal stabilisation; K562 cells, 10 uM, 30 min; active = over 0.2 and 3.5 SD of the protein, either way, in both replicates (recomputed)
[1] = compound: CS(=O)(=O)c1ccc(-c2cnc(N)c(C(=O)Nc3ccccc3)n2)cc1
Procedure, shortened: (§1)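 Quantification of soluble protein used TMTpro 16plex LC-MS/MS, with channel sums equalised. Samples were the supernatant after 21,000xg for 90 min of pooled aliquots from K562 cells (2×10^6 cells/mL) treated with 10 μM compound for 30 min, heated for 3 min over 48°C-58°C, and extracted in PBS with 0.5% NP-40 at 4°C. Values, from duplicates, describe thermal stability against control samples on a log2 fold-change scale.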

crizotinib = compound: C[C@@H](Oc1cc(-c2cnn(C3CCNCC3)c2)cnc1N)c1c(Cl)ccc(F)c1Cl [crizotinib]
Procedure, shortened: as §1

[2] = compound: C[C@@H]1COCCN1C2=NC(=NC(=C2)C3(CC3)S(=O)(=O)C)C4=C5C=CNC5=CC=C4
Procedure, shortened: as §1

[3] = compound: C[C@H](C1=CC=C(C=C1)C(=O)NC2=C3C=CNC3=NC=C2)N
Procedure, shortened: as §1

gandotinib = compound: Cc1cc(Nc2cc(CN3CCOCC3)c3nc(C)c(Cc4ccc(Cl)cc4F)n3n2)n[nH]1 [gandotinib]
Procedure, shortened: as §1

[4] = compound: Cc1cc(SCc2sc(-c3ccc(C(F)(F)F)cc3)nc2C)ccc1OCC(=O)O
Procedure, shortened: as §1

doramapimod = compound: Cc1ccc(-n2nc(C(C)(C)C)cc2NC(=O)Nc2ccc(OCCN3CCOCC3)c3ccccc23)cc1 [doramapimod]
Procedure, shortened: as §1

ispinesib = compound: Cc1ccc(C(=O)N(CCCN)[C@@H](c2nc3cc(Cl)ccc3c(=O)n2Cc2ccccc2)C(C)C)cc1 [ispinesib]
Procedure, shortened: as §1

bafetinib = compound: Cc1ccc(NC(=O)c2ccc(CN3CC[C@H](N(C)C)C3)c(C(F)(F)F)c2)cc1Nc1nccc(-c2cncnc2)n1 [bafetinib]
Procedure, shortened: as §1

[5] = compound: Cc1cccc(CC(=O)N2CCc3c2ccc(-c2cn(C)c4ncnc(N)c24)c3F)n1
Procedure, shortened: as §1

nilotinib = compound: Cc1cn(-c2cc(NC(=O)c3ccc(C)c(Nc4nccc(-c5cccnc5)n4)c3)cc(C(F)(F)F)c2)cn1 [nilotinib]
Procedure, shortened: as §1

[6] = compound: Cc1nc(Nc2n[nH]c3c2CN(C(=O)N[C@H](CN(C)C)c2ccccc2)C3(C)C)c2sccc2n1
Procedure, shortened: as §1

dasatinib = compound: Cc1nc(Nc2ncc(C(=O)Nc3c(C)cccc3Cl)s2)cc(N2CCN(CCO)CC2)n1 [dasatinib]
Procedure, shortened: as §1

[7] = compound: Cc1ncc(-c2ccnc(Nc3ccc(S(C)(=O)=O)cc3)n2)n1C(C)C
Procedure, shortened: as §1

[8] = compound: Cn1cc(-c2ccc3c(c2)CCN3C(=O)Cc2cccc(C(F)(F)F)c2)c2c(N)ncnc21
Procedure, shortened: as §1

[9] = compound: Cn1cc(-c2ccc3nnc(C(F)(F)c4ccc5ncccc5c4)n3n2)cn1
Procedure, shortened: as §1

tipifarnib = compound: Cn1cncc1[C@@](N)(c1ccc(Cl)cc1)c1ccc2c(c1)c(-c1cccc(Cl)c1)cc(=O)n2C [tipifarnib]
Procedure, shortened: as §1

mubritinib = compound: FC(F)(F)c1ccc(/C=C/c2nc(COc3ccc(CCCCn4ccnn4)cc3)co2)cc1 [mubritinib]
Procedure, shortened: as §1

duvelisib = compound: C[C@H](Nc1ncnc2nc[nH]c12)c1cc2cccc(Cl)c2c(=O)n1-c1ccccc1 [duvelisib]
Procedure, shortened: as §1

tozasertib = compound: Cc1cc(Nc2cc(N3CCN(C)CC3)nc(Sc3ccc(NC(=O)C4CC4)cc3)n2)n[nH]1 [tozasertib]
Procedure, shortened: as §1

| Target | log2 fold change [1] | log2 fold change (crizotinib) | log2 fold change [2] | log2 fold change [3] | log2 fold change (gandotinib) | log2 fold change [4] | log2 fold change (doramapimod) | log2 fold change (ispinesib) | log2 fold change (bafetinib) | log2 fold change [5] | log2 fold change (nilotinib) | log2 fold change [6] | log2 fold change (dasatinib) | log2 fold change [7] | log2 fold change [8] | log2 fold change [9] | log2 fold change (tipifarnib) | log2 fold change (mubritinib) | log2 fold change (duvelisib) | log2 fold change (tozasertib) |
| --- | --- | --- | --- | --- | --- | --- | --- | --- | --- | --- | --- | --- | --- | --- | --- | --- | --- | --- | --- | --- |
| ERLIN1 (UniProt O75477) | inactive: 0.012 | inactive: -0.039 | inactive: -0.038 | inactive: 0.099 | inactive: -0.04 | inactive: 0.148 | inactive: 0.057 | active: -0.27 | inactive: 0.041 | inactive: 0.094 | inactive: -0.153 | inactive: 0.032 | inactive: -0.031 | inactive: 0.004 | inactive: -0.11 | inactive: 0.002 | inactive: 0.026 | inactive: -0.053 |  |  |
| EXOC5 (UniProt O00471) | inactive: -0.02 | active: -0.279 | inactive: -0.017 | inactive: 0.015 | inactive: -0.129 | inactive: 0.101 | inactive: 0.008 | active: -0.342 | inactive: -0.016 | inactive: 0.061 | inactive: -0.109 | inactive: -0.258 | inactive: -0.1 | inactive: -0.078 | inactive: 0.022 | inactive: 0.026 | inactive: -0.076 | inactive: 0.039 |  |  |
| EPHX2 (UniProt P34913) | inactive: 0.036 | inactive: 0.169 | inactive: 0.194 | inactive: -0.019 | inactive: -0.018 | inactive: -0.032 | inactive: -0.016 | inactive: -0.01 | inactive: 0.131 | inactive: -0.097 | inactive: 0.152 | inactive: -0.029 | inactive: -0.041 | inactive: 0.073 | inactive: 0.051 | inactive: 0.016 | inactive: 0.065 | inactive: 0.11 |  |  |
| ESYT2 (UniProt H7BXI1) | inactive: 0.027 |  | inactive: -0.324 |  |  | inactive: 0.009 |  |  | inactive: 0.054 |  | inactive: 0.051 | inactive: -0.136 | inactive: -0.019 | inactive: 0.043 |  |  | inactive: 0.149 | inactive: 0.186 | inactive: -0.149 |  |
| ERN1 (UniProt O75460) | inactive: 0.257 | inactive: 0.134 | inactive: 0.092 |  | inactive: -0.096 | inactive: 0.079 | inactive: 0.082 | inactive: -0.082 |  | inactive: 0.133 | inactive: 0.053 | inactive: 0.045 | inactive: -0.057 | inactive: 0.253 |  | inactive: 0.01 | inactive: 0.012 | inactive: -0.147 | inactive: 0.148 | inactive: 0.017 |
| FAM135A (UniProt Q9P2D6) | inactive: 0.087 |  | inactive: 0.038 |  |  |  |  |  |  |  | inactive: 0.054 | inactive: -0.138 |  | inactive: -0.054 |  |  |  |  |  |  |
| FAM118B (UniProt Q9BPY3) | inactive: 0.099 | inactive: -0.169 | inactive: -0.007 | inactive: 0.107 | inactive: -0.101 |  | inactive: -0.003 | inactive: 0.046 | inactive: -0.083 | inactive: 0.028 | inactive: -0.114 | inactive: -0.106 |  | inactive: 0.022 | inactive: 0.014 | inactive: 0.02 | inactive: -0.083 | inactive: 0.015 |  |  |
| FAHD2B (UniProt Q6P2I3) |  | inactive: 0.076 | inactive: 0.108 | inactive: -0.139 |  | inactive: -0.033 | inactive: -0.102 | inactive: 0.118 | inactive: -0.008 |  | inactive: 0.042 | inactive: 0.069 | inactive: 0.062 | inactive: -0.109 | inactive: -0.106 | inactive: -0.065 | inactive: -0.083 | inactive: -0.052 | inactive: 0.08 |  |
| FAM172A (UniProt Q8WUF8) | inactive: 0.204 |  | inactive: 0.046 | inactive: -0.005 | inactive: 0 |  |  |  | inactive: -0.02 | inactive: -0.087 | inactive: -0.082 | inactive: 0.042 |  | inactive: -0.119 | inactive: 0.139 |  |  | inactive: -0.053 |  |  |
| EXD2 (UniProt Q9NVH0) | inactive: 0.071 | inactive: -0.031 | inactive: 0.023 | inactive: 0.51 |  |  | inactive: 0.122 | inactive: -0.289 |  |  |  |  |  |  | inactive: -0.069 | inactive: -0.202 | inactive: 0.003 |  |  |  |
| ERG28 (UniProt Q9UKR5) | inactive: -0.034 | inactive: 0.119 | inactive: -0.033 | inactive: -0.087 |  |  | inactive: 0.037 | inactive: 0.025 | inactive: -0.139 |  | inactive: 0.035 | inactive: -0.028 |  | inactive: -0.062 | inactive: 0.008 | inactive: 0.089 | inactive: 0.041 | inactive: 0.003 |  | inactive: -0.091 |
| EVPL (UniProt Q92817) | inactive: -0.015 |  |  |  | inactive: 0.431 |  |  | inactive: -0.181 |  | inactive: 0 | inactive: 0.18 | inactive: -0.05 |  | inactive: -0.191 |  | inactive: 0.02 |  | inactive: -0.142 |  |  |
| EXOSC10 (UniProt Q01780) | inactive: 0.126 | inactive: 0.043 | inactive: 0.063 | inactive: -0.015 | inactive: 0.527 | inactive: -0.138 | inactive: 0.097 | inactive: -0.441 | active: -0.63 | inactive: 0 |  |  | inactive: 0.017 |  | inactive: 0.152 | inactive: 0.251 | inactive: 0.195 | inactive: 0.046 |  |  |
| FAM114A1 (UniProt Q8IWE2) |  | inactive: -0.073 | inactive: -0.119 |  | inactive: -0.072 | inactive: -0.069 | inactive: 0.037 | inactive: 0.036 |  | inactive: 0.308 |  |  | inactive: -0.06 |  |  | inactive: -0.368 |  | inactive: -0.133 | inactive: 0.104 | inactive: 0.102 |
| ERCC1 isoform 3 (UniProt P07992) | inactive: 0.022 |  |  | inactive: 0.049 |  | inactive: 0.019 |  | inactive: 0.09 |  |  |  |  | inactive: -0.191 |  | inactive: 0.191 | inactive: 0 | inactive: -0.211 |  | inactive: 0.211 |  |
| EZH2 isoform 2 (UniProt Q15910) | inactive: -0.012 | inactive: -0.196 | inactive: -0.039 | inactive: 0.072 |  | inactive: 0.279 | inactive: 0.095 |  | inactive: 0.146 |  |  |  | inactive: -0.113 |  | inactive: 0.055 |  | inactive: -0.021 | inactive: -0.097 |  |  |
| F10 (UniProt P00742) | inactive: 0.023 | inactive: 0.288 | inactive: 0.042 |  |  |  | inactive: 0.037 | inactive: 0.13 | inactive: -0.081 |  | inactive: 0.145 | inactive: -0.135 |  | inactive: 0.289 |  | inactive: -0.086 |  | inactive: -0.196 |  | inactive: 0.081 |
| ERI1 (UniProt Q8IV48) |  | inactive: 0.118 | inactive: 0.023 | inactive: 0.481 | inactive: 0.123 | inactive: 0.046 | inactive: 0.225 | inactive: -0.375 |  | inactive: -0.049 |  |  | inactive: 0.038 |  | inactive: -0.333 | inactive: -0.089 |  | inactive: 0.197 | inactive: -0.216 | inactive: -0.107 |
| FAM193B (UniProt Q96PV7) | inactive: -0.065 | inactive: -0.081 | inactive: -0.097 | inactive: 0.348 |  | inactive: -0.189 | inactive: -0.046 |  | inactive: 0.19 |  |  |  | inactive: -0.01 |  | inactive: 0.171 |  | inactive: -0.027 |  |  |  |
| ESPL1 (UniProt Q14674) | inactive: 0.153 | inactive: -0.054 | inactive: -0.228 | inactive: 0.123 | inactive: -0.069 |  | inactive: -0.021 | inactive: -0.167 | inactive: -0.051 | inactive: -0.144 | inactive: 0.009 | inactive: -0.093 |  | inactive: -0.217 | inactive: -0.015 | inactive: 0.062 | inactive: -0.298 | inactive: 0.058 |  |  |
| EPS15L1 (UniProt M0QY01) | inactive: -0.037 | inactive: -0.088 | inactive: -0.165 |  |  |  | inactive: -0.042 |  |  |  |  |  |  |  |  |  |  |  |  |  |
| ERH (UniProt P84090) |  | inactive: 0.181 | inactive: 0.137 | inactive: -0.306 | inactive: 0.16 | inactive: -0.068 | inactive: 0.075 | inactive: 0.175 | inactive: -0.085 | inactive: -0.068 | inactive: 0.085 | inactive: -0.184 | inactive: 0.097 | inactive: -0.039 | inactive: 0.107 | inactive: 0.104 | inactive: 0.021 | inactive: -0.043 | inactive: 0.006 | inactive: 0.044 |
| ESRRB isoform 1 (UniProt O95718) |  | inactive: 0.19 |  | inactive: -0.143 |  | inactive: 0.046 | inactive: -0.108 |  | inactive: 0.044 |  |  |  | inactive: -0.105 |  | inactive: -0.044 |  |  |  | inactive: 0.029 |  |

2 records picked at random from those above:

| Target | log2 fold change [1] | log2 fold change (crizotinib) | log2 fold change [2] | log2 fold change [3] | log2 fold change (gandotinib) | log2 fold change [4] | log2 fold change (doramapimod) | log2 fold change (ispinesib) | log2 fold change (bafetinib) | log2 fold change [5] | log2 fold change (nilotinib) | log2 fold change [6] | log2 fold change (dasatinib) | log2 fold change [7] | log2 fold change [8] | log2 fold change [9] | log2 fold change (tipifarnib) | log2 fold change (mubritinib) | log2 fold change (duvelisib) | log2 fold change (tozasertib) |
| --- | --- | --- | --- | --- | --- | --- | --- | --- | --- | --- | --- | --- | --- | --- | --- | --- | --- | --- | --- | --- |
| EPHX2 (UniProt P34913) | inactive: 0.036 | inactive: 0.169 | inactive: 0.194 | inactive: -0.019 | inactive: -0.018 | inactive: -0.032 | inactive: -0.016 | inactive: -0.01 | inactive: 0.131 | inactive: -0.097 | inactive: 0.152 | inactive: -0.029 | inactive: -0.041 | inactive: 0.073 | inactive: 0.051 | inactive: 0.016 | inactive: 0.065 | inactive: 0.11 |  |  |
| FAM172A (UniProt Q8WUF8) | inactive: 0.204 |  | inactive: 0.046 | inactive: -0.005 | inactive: 0 |  |  |  | inactive: -0.02 | inactive: -0.087 | inactive: -0.082 | inactive: 0.042 |  | inactive: -0.119 | inactive: 0.139 |  |  | inactive: -0.053 |  |  |
